Source: publication PMC11923351
Results are given in words; binding and its absence hold for the method and conditions named. In cells and extracts the contact can be indirect. Some results given as binding are weak or reduced against the parent protein; the word gives no strength.

Sequences of proteins named here, by UniProt entry; tags and fusion partners are left off. A change or cut given only in a name is not applied to a line headed by its entry. A line that says so, or that is headed by a name, gives the form on record, which may keep a tag or linker.
sNASP, endogenous in primary bone marrow-derived macrophages (not stated (endogenous in primary BMDMs)) (Q99MD9, form named): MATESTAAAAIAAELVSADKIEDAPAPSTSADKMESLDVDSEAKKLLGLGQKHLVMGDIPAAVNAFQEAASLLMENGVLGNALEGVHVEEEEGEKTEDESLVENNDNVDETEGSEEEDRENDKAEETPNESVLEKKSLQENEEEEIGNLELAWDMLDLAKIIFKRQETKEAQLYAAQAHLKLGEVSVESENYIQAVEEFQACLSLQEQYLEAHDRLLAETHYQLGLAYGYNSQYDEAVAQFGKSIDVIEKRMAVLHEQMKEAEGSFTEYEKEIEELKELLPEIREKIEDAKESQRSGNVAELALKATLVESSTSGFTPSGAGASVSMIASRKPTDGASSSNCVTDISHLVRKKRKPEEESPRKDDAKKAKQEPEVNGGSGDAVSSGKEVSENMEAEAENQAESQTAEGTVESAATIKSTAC

What was measured:
[1] = biological target: sNASP, endogenous in primary bone marrow-derived macrophages (not stated (endogenous in primary BMDMs)) (UniProt Q99MD9); assay: co-IP; primary BMDMs, before LPS; IP with anti-NASP or anti-CYLD, IB with the indicated antibodies
[2] = biological target: sNASP, endogenous in primary bone marrow-derived macrophages (not stated (endogenous in primary BMDMs)) (UniProt Q99MD9); assay: co-IP; primary BMDMs stimulated with LPS (2 h); IP with anti-NASP or anti-CYLD, IB with the indicated antibodies

B1: CYLD, endogenous in primary bone marrow-derived macrophages (enzyme, UniProt Q80TQ2 1-952)
chain: MSSGLWSQEKVTSPYWEERIFYLLLQECSVTDKQTQKLLKVPKGSIGQYIQDRSVGHSRVPSTKGKKNQIGLKILEQPHAVLFVDEKDVVEINEKFTELLLAITNCEERLSLFRNRLRLSKGLQVDVGSPVKVQLRSGEEKFPGVVRFRGPLLAERTVSGIFFGVELLEEGRGQGFTDGVYQGKQLFQCDEDCGVFVALDKLELIEDDDNGLESDFAGPGDTMQVEPPPLEINSRVSLKVGESTESGTVIFCDVLPGKESLGYFVGVDMDNPIGNWDGRFDGVQLCSFASVESTILLHINDIIPDSVTQERRPPKLAFMSRGVGDKGSSSHNKPKVTGSTSDPGSRNRSELFYTLNGSSVDSQQSKSKNPWYIDEVAEDPAKSLTEMSSDFGHSSPPPQPPSMNSLSSENRFHSLPFSLTKMPNTNGSMAHSPLSLSVQSVMGELNSTPVQESPPLPISSGNAHGLEVGSLAEVKENPPFYGVIRWIGQPPGLSDVLAGLELEDECAGCTDGTFRGTRYFTCALKKALFVKLKSCRPDSRFASLQPVSNQIERCNSLAFGGYLSEVVEENTPPKMEKEGLEIMIGKKKGIQGHYNSCYLDSTLFCLFAFSSALDTVLLRPKEKNDIEYYSETQELLRTEIVNPLRIYGYVCATKIMKLRKILEKVEAASGFTSEEKDPEEFLNILFHDILRVEPLLKIRSAGQKVQDCNFYQIFMEKNEKVGVPTIQQLLEWSFINSNLKFAEAPSCLIIQMPRFGKDFKLFKKIFPSLELNITDLLEDTPRQCRICGGLAMYECRECYDDPDISAGKIKQFCKTCSTQVHLHPRRLNHSYHPVSLPKDLPDWDWRHGCIPCQKMELFAVLCIETSHYVAFVKYGKDDSAWLFFDSMADRDGGQNGFNIPQVTPCPEVGEYLKMSLEDLHSLDSRRIQGCARRLLCDAYMCMYQSPTMSLYK
binding [1]: binds
binding [2]: no binding (condition: 2 h after LPS stimulation)
